# In the supplement of paper PMC12823440, “Inhibitors supercharge kinase turnover through native proteolytic circuits” (Nature, 2025):
# The chains behind the UniProt entries cited, without tags or fusion partners.
# UniProt O96017, whole entry: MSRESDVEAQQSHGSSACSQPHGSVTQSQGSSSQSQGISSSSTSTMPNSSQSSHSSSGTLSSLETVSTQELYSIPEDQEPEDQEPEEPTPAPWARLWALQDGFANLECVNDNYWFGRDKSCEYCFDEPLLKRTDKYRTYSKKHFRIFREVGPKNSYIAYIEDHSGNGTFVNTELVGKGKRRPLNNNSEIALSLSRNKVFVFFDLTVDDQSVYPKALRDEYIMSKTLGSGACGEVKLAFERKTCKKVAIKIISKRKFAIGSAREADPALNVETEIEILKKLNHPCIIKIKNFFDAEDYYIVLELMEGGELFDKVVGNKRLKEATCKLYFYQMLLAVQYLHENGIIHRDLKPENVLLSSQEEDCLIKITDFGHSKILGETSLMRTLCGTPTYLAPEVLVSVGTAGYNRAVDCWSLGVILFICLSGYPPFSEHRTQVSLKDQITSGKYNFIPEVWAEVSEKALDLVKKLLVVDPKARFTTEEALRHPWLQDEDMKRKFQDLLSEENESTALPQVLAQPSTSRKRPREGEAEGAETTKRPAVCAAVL
# Counter-ions that a name gives are not always drawn. The list shows a part of the results. Hit calls seldom repeat between salt and free forms of one compound.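 Kinases were expressed as nanoluciferase fusions in K562 cells and luminescence was read every 4 h between 2 and 18 h as percent of control, DMSO set to 100% and a positive control to 0%. A time point counts as decreased when the signal drops significantly (2 sigma). The hit call is the authors' own, does not follow from the count of time points alone, and its rule is not shown.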
# Target: CHEK2 (UniProt O96017)
# Assay: number of time points (of 5) at which kinase-Nluc abundance scored as decreased, DMSO-normalised (count); higher = more persistent destabilization
# Conditions: K562; 2-18 h
row,SMILES,number of time points
1,N#Cc1ccc2[nH]c(O)c(-c3ccc(CN4CCOCC4)cn3)c2c1 (10 µM),0
2,CCN(CC)CCCCNc1ncc2cc(-c3cc(OC)cc(OC)c3)c(NC(=O)NC(C)(C)C)nc2n1 (10 µM),0
3,Oc1ccc(-c2nc(-c3ccc(F)cc3)c(-c3ccncc3)[nH]2)cc1 (2.5 µM),0
4,O=C1NCCc2[nH]c(-c3ccnc(-c4cnc5ccccc5c4)c3)cc21 (10 µM),0
5,Cc1cc(N2CCOCC2)cc2[nH]c(-c3c(NC[C@@H](O)c4cccc(Cl)c4)cc[nH]c3=O)nc12 (10 µM),1
6,COc1cc(OC)cc(-c2cc3cnc(N)nc3nc2NC(=O)NC(C)(C)C)c1 (10 µM),0
7,Cc1ccc(NC(=O)Nc2nnc(Sc3ncnc4cc(OCCCN5CCOCC5)ccc34)s2)cc1 (10 µM),0
8,N#C/C(=C\c1ccc(O)c(O)c1)C(=O)NCCCc1ccccc1 (10 µM),0
9,Cc1cccc([C@@H](CO)NC(=O)[C@@H](C)N2Cc3ccc(-c4nc(NC5CCOCC5)ncc4Cl)cc3C2=O)c1 [ERK1/2 inhibitor 1] (10 µM),0
10,CCOc1ccn(-c2ccc(F)cc2)c(=O)c1C(=O)Nc1ccc(Oc2ccnc(N)c2Cl)c(F)c1 (10 µM),1
11,O=c1cc(N2CCOCC2)oc2c(-c3ccccc3)cccc12 (10 µM),0
12,O=c1oc2c(O)c(O)cc3c(=O)oc4c(O)c(O)cc1c4c23 [Ellagic acid] (10 µM),0
13,C=CC(=O)Nc1ccc2ncnc(Nc3cccc(Br)c3)c2c1 (10 µM),2
14,Cc1c(Cn2c(C)nc3c(C(=O)O)cc(N4CCOCC4)cc32)cccc1C(F)(F)F (10 µM),0
15,Cc1c[nH]c2nccc(Oc3c(F)cc(Nc4cc(Cl)nc(N)n4)cc3F)c12 (10 µM),0
16,CC(C)CC(=O)Nc1n[nH]c2c1CN(C(=O)C1CCN(C)CC1)C2(C)C (2.5 µM),0
17,CCN(CCO)CCCOc1ccc2c(Nc3cc(CC(=O)Nc4cccc(F)c4)[nH]n3)ncnc2c1 [Barasertib-HQPA] (10 µM),0
18,N#C/C(=C\c1ccc(O)c(O)c1)C(=O)NCc1ccccc1 (10 µM),0
19,COc1nccc(-c2c(-c3ccc(F)cc3)ncn2C2CCC(O)CC2)n1 (centres undefined) (10 µM),0
20,O=c1c(-c2ccc(O)cc2)coc2cc(O)cc(O)c12 [Genistein] (10 µM),0

row,SMILES,number of time points
1,CCOc1cc2ncc(C#N)c(Nc3ccc(OCc4ccccn4)c(Cl)c3)c2cc1NC(=O)/C=C/CN(C)C [Neratinib] (10 µM),0
2,CN1CCC(Nc2ncc3ncnc(Nc4ccc(F)c(Cl)c4)c3n2)CC1 [Falnidamol] (10 µM),0
3,O=c1c(O)c(-c2ccc(O)c(O)c2)oc2cc(O)cc(O)c12 [Quercetin (dihydrate)] (10 µM),0
4,COc1ccc(C=C(C#N)c2cccnc2)cc1OC (10 µM),0
5,Nc1ncnc2c1c(-c1ccc(Oc3ccccc3)cc1)cn2C1CCCC1 (2.5 µM),0
6,COc1cc2nc(C)nc(N[C@H](C)c3cc(N)cc(C(F)(F)F)c3)c2cc1O[C@H]1CCOC1 (10 µM),0
7,N#CC(=Cc1ccc(O)c(O)c1)C(=O)NCc1ccccc1 (mixture of isomers) (10 µM),0
8,O=C1Cc2c([nH]c3ccc(Br)cc23)-c2ncccc2N1 [1-Azakenpaullone] (10 µM),0
9,COc1cc2c(Nc3ccc(Br)cc3F)ncnc2cc1OCCn1ccnn1 (10 µM),0
10,CNc1nc(-c2ccc3c(N)n[nH]c3c2)cc(N2C[C@@H](C(=O)NC3CCCCC3)CC[C@H]2C)n1 (10 µM),3
11,Cc1cc(F)c(C(=O)Nc2cccc(-c3nncn3C(C)C)n2)cc1-n1cnc(C2CC2)c1 [Selonsertib] (10 µM),0
12,COc1cc(C)c(Sc2cnc(NC(=O)c3ccc(CNC(C)C(C)(C)C)cc3)s2)cc1C(=O)N1CCN(C(C)=O)CC1 (centres undefined) (2.5 µM),0
13,CCN(CC)CCCCNc1ncc2cc(-c3c(Cl)cccc3Cl)c(NC(=O)NC(C)(C)C)nc2n1 (2.5 µM),2
14,COc1cc(C=C(C#N)C(N)=O)cc(CSc2nc3ccccc3s2)c1O (10 µM),0
15,C[C@]1(O)C[C@@H](c2nc(-c3ccc4ccc(-c5ccccc5)nc4c3)c3c(N)nccn32)C1 [Linsitinib] (2.5 µM),0
16,CCN1CCN(c2ccc(Nc3cc(N(C)C(=O)Nc4c(Cl)c(OC)cc(OC)c4Cl)ncn3)cc2)CC1 [Infigratinib] (10 µM),0
17,COc1c(CC=C(C)C)c(O)cc2oc(=O)c(-c3ccc(O)cc3O)cc12 [Glycycoumarin] (10 µM),0
18,Cc1cc(C(=O)Nc2cccc(C(=O)Nc3cccc(C(F)(F)F)c3)c2)on1 (10 µM),0
19,Cn1c(=O)c(Oc2ccc(F)cc2F)cc2cnc(NC3CCOCC3)nc21 [R1487 (Hydrochloride)] (10 µM),0

# Compounds shown so far containing an aryl thioether with sulfur outside any ring, in the order listed:
row,SMILES,number of time points
7,Cc1ccc(NC(=O)Nc2nnc(Sc3ncnc4cc(OCCCN5CCOCC5)ccc34)s2)cc1 (10 µM),0
12,COc1cc(C)c(Sc2cnc(NC(=O)c3ccc(CNC(C)C(C)(C)C)cc3)s2)cc1C(=O)N1CCN(C(C)=O)CC1 (centres undefined) (2.5 µM),0
14,COc1cc(C=C(C#N)C(N)=O)cc(CSc2nc3ccccc3s2)c1O (10 µM),0
